Source: the supplement of paper PMC6411743
± gives the standard deviation of the averaged measurements. The list shows a part of the results, in another mix than the full data.

Protein sequences, listed by entry. Tags and fused reporters are not part of them. Lines headed by an entry give the natural chain unless they say otherwise; changes in a name come on top.
UniProt O95785: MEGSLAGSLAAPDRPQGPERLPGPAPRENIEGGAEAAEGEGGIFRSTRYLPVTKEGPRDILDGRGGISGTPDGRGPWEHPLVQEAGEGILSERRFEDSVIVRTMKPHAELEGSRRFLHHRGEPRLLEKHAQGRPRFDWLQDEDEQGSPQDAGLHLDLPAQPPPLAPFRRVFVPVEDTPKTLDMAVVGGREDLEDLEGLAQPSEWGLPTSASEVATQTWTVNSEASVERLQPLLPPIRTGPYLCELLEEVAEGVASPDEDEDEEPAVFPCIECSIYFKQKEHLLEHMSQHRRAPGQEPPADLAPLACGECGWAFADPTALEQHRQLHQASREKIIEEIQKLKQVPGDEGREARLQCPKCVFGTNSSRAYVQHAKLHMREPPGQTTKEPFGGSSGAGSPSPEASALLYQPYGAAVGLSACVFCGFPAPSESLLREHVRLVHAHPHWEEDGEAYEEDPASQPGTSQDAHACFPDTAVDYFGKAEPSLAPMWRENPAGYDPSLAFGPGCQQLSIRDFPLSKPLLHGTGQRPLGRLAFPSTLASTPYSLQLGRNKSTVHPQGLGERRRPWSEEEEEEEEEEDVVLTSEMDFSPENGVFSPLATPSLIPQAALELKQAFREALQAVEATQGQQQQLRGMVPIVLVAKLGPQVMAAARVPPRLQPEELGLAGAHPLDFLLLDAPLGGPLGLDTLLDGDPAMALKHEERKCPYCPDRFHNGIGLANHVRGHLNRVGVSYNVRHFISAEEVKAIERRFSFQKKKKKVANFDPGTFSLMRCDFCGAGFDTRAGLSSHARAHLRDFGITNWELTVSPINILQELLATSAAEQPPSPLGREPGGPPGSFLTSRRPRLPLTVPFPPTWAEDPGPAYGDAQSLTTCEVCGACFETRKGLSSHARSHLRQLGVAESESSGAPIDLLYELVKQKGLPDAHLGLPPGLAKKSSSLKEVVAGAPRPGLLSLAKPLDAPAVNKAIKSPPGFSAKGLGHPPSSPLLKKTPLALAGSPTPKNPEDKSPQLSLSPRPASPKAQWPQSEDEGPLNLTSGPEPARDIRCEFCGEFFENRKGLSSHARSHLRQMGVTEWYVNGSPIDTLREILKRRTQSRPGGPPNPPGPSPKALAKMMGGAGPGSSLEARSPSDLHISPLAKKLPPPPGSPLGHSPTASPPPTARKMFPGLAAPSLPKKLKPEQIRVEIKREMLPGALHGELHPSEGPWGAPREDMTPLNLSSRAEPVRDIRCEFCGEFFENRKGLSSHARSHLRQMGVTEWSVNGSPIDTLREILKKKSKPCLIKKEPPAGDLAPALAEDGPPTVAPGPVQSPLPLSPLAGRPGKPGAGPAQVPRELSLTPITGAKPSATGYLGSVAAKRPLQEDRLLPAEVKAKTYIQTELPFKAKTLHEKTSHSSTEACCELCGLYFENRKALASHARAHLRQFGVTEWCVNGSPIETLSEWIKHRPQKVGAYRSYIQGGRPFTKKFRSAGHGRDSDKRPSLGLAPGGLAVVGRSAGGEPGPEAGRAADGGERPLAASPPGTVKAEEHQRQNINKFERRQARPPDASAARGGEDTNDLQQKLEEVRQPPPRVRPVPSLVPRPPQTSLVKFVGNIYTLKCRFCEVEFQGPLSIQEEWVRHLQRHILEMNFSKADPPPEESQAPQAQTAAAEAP
UniProt O43513: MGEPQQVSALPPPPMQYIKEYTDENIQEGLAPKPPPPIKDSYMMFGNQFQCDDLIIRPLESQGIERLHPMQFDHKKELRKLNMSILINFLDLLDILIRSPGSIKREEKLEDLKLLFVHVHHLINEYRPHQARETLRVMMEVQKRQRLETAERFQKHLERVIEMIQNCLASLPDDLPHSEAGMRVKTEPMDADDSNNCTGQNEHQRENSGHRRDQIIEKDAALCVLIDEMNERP
UniProt O43395: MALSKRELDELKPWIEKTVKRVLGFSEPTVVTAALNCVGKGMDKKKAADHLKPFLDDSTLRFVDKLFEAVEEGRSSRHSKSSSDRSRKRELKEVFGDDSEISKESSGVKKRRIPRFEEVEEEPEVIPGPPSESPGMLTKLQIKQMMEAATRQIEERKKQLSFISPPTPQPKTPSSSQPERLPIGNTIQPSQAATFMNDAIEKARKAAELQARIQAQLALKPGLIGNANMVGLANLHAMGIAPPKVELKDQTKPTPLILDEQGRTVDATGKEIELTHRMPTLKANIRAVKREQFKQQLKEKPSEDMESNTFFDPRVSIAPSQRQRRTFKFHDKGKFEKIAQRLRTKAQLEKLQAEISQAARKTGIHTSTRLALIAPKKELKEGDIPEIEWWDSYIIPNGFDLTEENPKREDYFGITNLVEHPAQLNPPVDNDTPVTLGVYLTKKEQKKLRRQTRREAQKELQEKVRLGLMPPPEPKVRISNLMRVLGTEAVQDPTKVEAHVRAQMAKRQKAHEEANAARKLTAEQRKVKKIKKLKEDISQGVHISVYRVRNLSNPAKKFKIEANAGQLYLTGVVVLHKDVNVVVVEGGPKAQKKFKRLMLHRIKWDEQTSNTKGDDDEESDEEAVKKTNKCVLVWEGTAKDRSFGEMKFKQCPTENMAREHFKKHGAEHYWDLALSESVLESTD
UniProt O14828: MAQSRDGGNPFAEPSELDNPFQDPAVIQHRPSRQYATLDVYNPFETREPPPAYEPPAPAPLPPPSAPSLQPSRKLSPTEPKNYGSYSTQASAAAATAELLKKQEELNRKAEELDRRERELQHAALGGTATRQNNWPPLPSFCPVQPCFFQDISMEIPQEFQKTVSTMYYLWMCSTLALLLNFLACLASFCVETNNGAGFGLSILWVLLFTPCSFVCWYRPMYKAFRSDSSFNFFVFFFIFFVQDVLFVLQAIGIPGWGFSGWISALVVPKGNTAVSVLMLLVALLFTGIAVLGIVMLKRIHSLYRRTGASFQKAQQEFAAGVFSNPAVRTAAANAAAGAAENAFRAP
UniProt O43822: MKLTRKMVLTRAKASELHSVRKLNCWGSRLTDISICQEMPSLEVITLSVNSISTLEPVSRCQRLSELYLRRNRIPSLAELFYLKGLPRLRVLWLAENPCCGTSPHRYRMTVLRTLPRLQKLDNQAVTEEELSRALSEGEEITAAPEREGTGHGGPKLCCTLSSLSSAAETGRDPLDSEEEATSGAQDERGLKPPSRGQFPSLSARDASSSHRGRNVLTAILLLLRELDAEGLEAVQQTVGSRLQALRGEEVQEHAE
UniProt O14773: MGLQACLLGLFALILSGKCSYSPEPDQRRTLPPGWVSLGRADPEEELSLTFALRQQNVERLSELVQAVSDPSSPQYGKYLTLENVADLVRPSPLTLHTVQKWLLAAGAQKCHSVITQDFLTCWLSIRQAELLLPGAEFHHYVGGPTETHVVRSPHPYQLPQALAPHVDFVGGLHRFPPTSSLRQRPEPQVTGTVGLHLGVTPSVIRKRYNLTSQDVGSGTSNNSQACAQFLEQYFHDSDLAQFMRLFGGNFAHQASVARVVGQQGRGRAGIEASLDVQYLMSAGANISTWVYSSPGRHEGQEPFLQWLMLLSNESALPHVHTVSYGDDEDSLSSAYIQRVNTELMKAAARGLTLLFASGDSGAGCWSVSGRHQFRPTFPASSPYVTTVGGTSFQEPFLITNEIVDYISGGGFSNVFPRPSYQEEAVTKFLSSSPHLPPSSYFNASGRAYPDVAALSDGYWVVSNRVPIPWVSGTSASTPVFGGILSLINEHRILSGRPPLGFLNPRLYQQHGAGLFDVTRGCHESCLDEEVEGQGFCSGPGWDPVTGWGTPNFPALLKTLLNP
UniProt O14908: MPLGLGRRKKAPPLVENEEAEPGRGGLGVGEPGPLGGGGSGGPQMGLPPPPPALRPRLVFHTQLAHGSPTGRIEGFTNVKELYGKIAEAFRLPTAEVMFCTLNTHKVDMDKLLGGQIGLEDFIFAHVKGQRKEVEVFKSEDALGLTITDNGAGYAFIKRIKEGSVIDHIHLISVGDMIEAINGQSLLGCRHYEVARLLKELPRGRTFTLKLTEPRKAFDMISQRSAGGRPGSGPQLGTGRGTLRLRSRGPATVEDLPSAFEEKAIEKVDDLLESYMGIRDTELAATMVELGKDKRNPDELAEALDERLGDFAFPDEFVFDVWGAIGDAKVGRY
UniProt O15111: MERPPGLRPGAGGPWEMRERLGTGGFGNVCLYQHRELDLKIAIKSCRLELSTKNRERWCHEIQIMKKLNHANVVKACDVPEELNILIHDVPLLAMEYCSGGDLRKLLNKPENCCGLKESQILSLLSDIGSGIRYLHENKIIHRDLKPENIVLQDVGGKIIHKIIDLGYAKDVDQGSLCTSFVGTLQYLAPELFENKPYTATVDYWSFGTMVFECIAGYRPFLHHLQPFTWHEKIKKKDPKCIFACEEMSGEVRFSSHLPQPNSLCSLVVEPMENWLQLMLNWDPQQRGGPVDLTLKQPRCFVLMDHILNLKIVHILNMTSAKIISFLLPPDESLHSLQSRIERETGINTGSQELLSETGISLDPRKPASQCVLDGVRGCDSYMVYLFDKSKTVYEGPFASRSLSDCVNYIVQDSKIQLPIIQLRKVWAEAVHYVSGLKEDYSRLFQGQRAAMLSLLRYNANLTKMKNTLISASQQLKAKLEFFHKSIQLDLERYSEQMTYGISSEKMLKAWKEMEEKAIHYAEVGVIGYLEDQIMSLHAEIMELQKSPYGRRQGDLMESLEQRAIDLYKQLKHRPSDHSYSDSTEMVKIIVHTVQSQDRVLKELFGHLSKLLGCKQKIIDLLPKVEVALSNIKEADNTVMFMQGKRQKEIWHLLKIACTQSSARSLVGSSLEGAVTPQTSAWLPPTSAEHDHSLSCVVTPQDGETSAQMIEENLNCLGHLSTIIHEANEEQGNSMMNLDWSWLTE
UniProt O00716: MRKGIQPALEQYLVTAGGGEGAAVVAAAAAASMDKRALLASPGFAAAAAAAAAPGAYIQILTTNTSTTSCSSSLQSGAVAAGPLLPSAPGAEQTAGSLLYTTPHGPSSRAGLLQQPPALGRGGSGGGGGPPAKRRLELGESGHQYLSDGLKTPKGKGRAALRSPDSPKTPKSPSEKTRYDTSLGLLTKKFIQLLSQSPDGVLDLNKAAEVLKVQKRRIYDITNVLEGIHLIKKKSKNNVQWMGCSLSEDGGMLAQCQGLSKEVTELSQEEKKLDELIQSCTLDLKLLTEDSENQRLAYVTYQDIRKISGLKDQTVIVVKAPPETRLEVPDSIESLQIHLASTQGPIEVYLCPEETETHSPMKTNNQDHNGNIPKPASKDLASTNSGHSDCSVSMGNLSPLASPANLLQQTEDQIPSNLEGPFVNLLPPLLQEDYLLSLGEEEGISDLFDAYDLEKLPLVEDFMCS
UniProt O00567: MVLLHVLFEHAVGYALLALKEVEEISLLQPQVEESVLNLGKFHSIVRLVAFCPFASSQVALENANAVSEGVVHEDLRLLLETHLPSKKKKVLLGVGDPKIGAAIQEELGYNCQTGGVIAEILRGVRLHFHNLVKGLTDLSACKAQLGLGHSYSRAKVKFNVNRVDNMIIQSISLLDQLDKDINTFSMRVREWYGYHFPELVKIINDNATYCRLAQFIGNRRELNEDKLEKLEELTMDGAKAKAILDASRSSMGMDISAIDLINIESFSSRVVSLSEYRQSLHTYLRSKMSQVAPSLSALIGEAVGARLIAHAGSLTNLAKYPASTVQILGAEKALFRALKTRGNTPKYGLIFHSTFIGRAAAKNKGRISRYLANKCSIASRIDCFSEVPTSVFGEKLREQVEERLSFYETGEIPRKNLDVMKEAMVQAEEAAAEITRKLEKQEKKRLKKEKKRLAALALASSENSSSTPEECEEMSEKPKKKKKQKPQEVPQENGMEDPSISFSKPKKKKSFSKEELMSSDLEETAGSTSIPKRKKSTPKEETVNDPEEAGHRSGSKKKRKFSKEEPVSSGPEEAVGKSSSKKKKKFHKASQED
UniProt O00116: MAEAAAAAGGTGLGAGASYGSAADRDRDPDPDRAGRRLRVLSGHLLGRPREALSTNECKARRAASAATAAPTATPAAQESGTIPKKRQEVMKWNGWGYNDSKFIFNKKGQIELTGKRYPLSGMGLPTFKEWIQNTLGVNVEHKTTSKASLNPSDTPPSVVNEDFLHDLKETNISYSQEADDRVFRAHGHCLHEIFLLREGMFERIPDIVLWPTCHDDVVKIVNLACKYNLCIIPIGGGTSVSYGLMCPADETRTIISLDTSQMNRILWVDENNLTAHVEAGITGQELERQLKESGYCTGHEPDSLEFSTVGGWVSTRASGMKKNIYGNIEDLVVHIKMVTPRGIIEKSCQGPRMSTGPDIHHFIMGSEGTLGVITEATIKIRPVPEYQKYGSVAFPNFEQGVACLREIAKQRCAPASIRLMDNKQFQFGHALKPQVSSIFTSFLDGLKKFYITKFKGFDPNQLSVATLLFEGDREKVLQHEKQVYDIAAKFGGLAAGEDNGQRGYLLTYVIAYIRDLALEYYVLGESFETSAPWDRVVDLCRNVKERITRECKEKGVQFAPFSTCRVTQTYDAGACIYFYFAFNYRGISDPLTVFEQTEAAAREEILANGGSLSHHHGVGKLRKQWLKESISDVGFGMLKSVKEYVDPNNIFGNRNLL

Compound: Nc1ncnc2c1ncn2[C@@H]1O[C@H](COP(=O)(O)OP(=O)(O)NP(=O)(O)O)[C@@H](O)[C@H]1O [adenylyl imidodiphosphate]
Test: NP40-soluble protein abundance relative to vehicle (solubility fold change) (ratio); higher = more soluble protein in presence of AMP-PNP
Procedure, shortened: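 Crude Jurkat lysate, prepared by Dounce homogenisation, was exposed to eight concentrations from 0.1 to 10 mM for 10 min at room temperature and then 3 min at 37 °C. Solubilisation used 0.8% NP40 with benzonase for 60 min at 4 °C, followed by ultracentrifugation and TMT labelling of the supernatant for LC-MS/MS. After vsn normalisation of intensities, each value is the fold change against the detergent-processed vehicle within each replicate, across three independent experiments.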

Target	NP40-soluble protein abundance (concentration: 1mM)	NP40-soluble protein abundance (concentration: 2mM)	NP40-soluble protein abundance (concentration: 4mM)	NP40-soluble protein abundance (concentration: 6mM)	NP40-soluble protein abundance (concentration: 8mM)	NP40-soluble protein abundance (concentration: 10mM)
M0QXA7 and related entries (UniProt O95785)	1.02 ± 0.031	1.04 ± 0.029	1.06 ± 0.013	1.04 ± 0.034	1.02 ± 0.023	1.07 ± 0.032
DCTN6 (UniProt O00399)	0.973 ± 0.096	0.998 ± 0.038	0.969 ± 0.1	0.978 ± 0.088	0.97 ± 0.1	0.98 ± 0.068
M0QWZ7 and related entries (UniProt Q9NP81)	1.01 ± 0.018	0.982 ± 0.029	0.996 ± 0.025	0.966 ± 0.013	1.016 ± 0.0045	0.983 ± 0.015
MED7 (UniProt O43513)	1.03 ± 0.034	1.02 ± 0.036	1.01 ± 0.033	1 ± 0.039	1.01 ± 0.017	1 ± 0.036
UniProt O43303 and related entries	0.988 ± 0.029	1.016 ± 0.0033	1.01 ± 0.029	0.966 ± 0.018	0.943 ± 0.014	0.98 ± 0.024
PRPF3 (UniProt O43395)	0.996 ± 0.02	1 ± 0.032	1.03 ± 0.014	1.07 ± 0.039	1.1 ± 0.057	1.15 ± 0.062
SCAMP3 (UniProt O14828)	1.05 ± 0.036	1.08 ± 0.059	1.03 ± 0.032	1.01 ± 0.035	0.991 ± 0.048	1 ± 0.069
UniProt O43822 and related entries	0.9824 ± 0.0079	1.01 ± 0.035	0.9922 ± 0.0037	0.992 ± 0.015	0.975 ± 0.029	0.985 ± 0.011
UniProt O43663 and related entries	1.043 ± 0.0029	1.04 ± 0.041	1.08 ± 0.066	1.13 ± 0.051	1.17 ± 0.021	1.16 ± 0.052
UniProt O14787-2	1.03 ± 0.024	1.05 ± 0.037	1.04 ± 0.039	1.02 ± 0.021	1.02 ± 0.041	1.03 ± 0.038
K7EQ37 and related entries (UniProt Q70J99)	0.979 ± 0.012	0.97 ± 0.036	1.01 ± 0.027	1.01 ± 0.036	1.02 ± 0.044	1.03 ± 0.046
M0R0F0 and related entries (UniProt P46782)	0.952 ± 0.035	0.917 ± 0.048	0.91 ± 0.13	0.925 ± 0.058	0.893 ± 0.088	0.928 ± 0.11
UniProt O14773 and related entries	1.03 ± 0.047	0.981 ± 0.024	1.02 ± 0.082	1.06 ± 0.04	1.09 ± 0.061	1.05 ± 0.089
K7EQS2 and related entries (UniProt Q96C34)	0.963 ± 0.022	0.95 ± 0.012	0.94 ± 0.0013	0.96011 ± 0.00081	0.939 ± 0.024	0.962 ± 0.021
NUDT21 (UniProt O43809)	1.03 ± 0.032	1.03 ± 0.018	1.08 ± 0.054	1.148 ± 0.0083	1.205 ± 0.0067	1.29 ± 0.046
UniProt O15042-2|O15042	1.1 ± 0.054	1.16 ± 0.082	1.16 ± 0.07	1.22 ± 0.11	1.2 ± 0.11	1.29 ± 0.14
UniProt O43903	1.05 ± 0.0042	1.07 ± 0.041	1.04 ± 0.079	0.999 ± 0.025	1.02 ± 0.05	1.01 ± 0.043
SUPT5H (UniProt O00267)	0.967 ± 0.02	0.969 ± 0.082	0.998 ± 0.015	1.05 ± 0.046	1.06 ± 0.046	1.05 ± 0.033
SLC25A20 (UniProt O43772)	0.986 ± 0.032	0.97 ± 0.012	0.972 ± 0.033	1.02 ± 0.085	1.05 ± 0.052	1.01 ± 0.011
UniProt O14686 and related entries	1.02 ± 0.051	1.11 ± 0.039	1.05 ± 0.035	0.995 ± 0.049	0.98 ± 0.045	1 ± 0.028
UBFD1 (UniProt O14562)	1.007 ± 0.0026	1.05 ± 0.065	1 ± 0.05	1.02 ± 0.026	0.989 ± 0.042	0.998 ± 0.072
GIPC1 (UniProt O14908)	1.01 ± 0.04	0.99 ± 0.01	1.02 ± 0.037	1.01 ± 0.017	0.994 ± 0.04	0.985 ± 0.035
UniProt O43865	0.994 ± 0.035	1.03 ± 0.05	1.03 ± 0.036	1.02 ± 0.034	1 ± 0.056	1.04 ± 0.047
UniProt O15111	1.02 ± 0.019	0.977 ± 0.058	1.01 ± 0.035	0.993 ± 0.03	0.997 ± 0.013	1.02 ± 0.011
UniProt O00716 and related entries	1.01 ± 0.021	1.05 ± 0.014	1.03 ± 0.023	1 ± 0.017	1.02 ± 0.035	1.04 ± 0.015
UniProt O00567	1.08 ± 0.026	1.08 ± 0.024	1.16 ± 0.026	1.25 ± 0.056	1.37 ± 0.087	1.53 ± 0.12
AIP (UniProt O00170)	0.984 ± 0.038	1 ± 0.029	0.935 ± 0.051	0.934 ± 0.017	0.914 ± 0.023	0.894 ± 0.066
UniProt O00291 and related entries	1.02 ± 0.021	1.06 ± 0.033	1.06 ± 0.025	1.04 ± 0.055	1.08 ± 0.036	1.11 ± 0.031
AGPS (UniProt O00116)	1.01 ± 0.014	0.978 ± 0.038	0.991 ± 0.031	0.989 ± 0.029	1.006 ± 0.0084	0.979 ± 0.022
RNF13 (UniProt O43567)	1.01 ± 0.043	1.01 ± 0.054	0.983 ± 0.011	0.963 ± 0.025	0.964 ± 0.031	0.943 ± 0.046

For reference, some entries already given.
Target	NP40-soluble protein abundance (concentration: 1mM)	NP40-soluble protein abundance (concentration: 2mM)	NP40-soluble protein abundance (concentration: 4mM)	NP40-soluble protein abundance (concentration: 6mM)	NP40-soluble protein abundance (concentration: 8mM)	NP40-soluble protein abundance (concentration: 10mM)
SLC25A20 (UniProt O43772)	0.986 ± 0.032	0.97 ± 0.012	0.972 ± 0.033	1.02 ± 0.085	1.05 ± 0.052	1.01 ± 0.011
UniProt O14686 and related entries	1.02 ± 0.051	1.11 ± 0.039	1.05 ± 0.035	0.995 ± 0.049	0.98 ± 0.045	1 ± 0.028
